Laboratory results taken from publication PMC4489720.
These are yes or no findings as the source states them, for the method shown. Binding seen in cells or lysates may run through a third protein. A yes stands for co-enrichment or nearness to the bait. Other partners may have been found. A no says only that the protein was not detected with the bait.

Target: recombinant, His-tagged DBL domain (DBLβ3_D5) of the PfEMP1 protein PFD1235w (P. falciparum)
Experiment: affinity purification with mass spectrometry; FV6 or PFD1235w DBLβ3_D5 (100 μg) coupled to M-270 epoxy Dynabeads; non-heat-inactivated human serum 500 μL, 1 h, 4°C; washed in NaPO4 buffer with 0.05% Tween 20; eluted in citrate pH 3.1; 2D gel, silver stain, MALDI TOF/TOF of spots; only the target purified

B1: α2-macroglobulin (α2M), native (protein, UniProt P01023 24-1474)
chain: SVSGKPQYMVLVPSLLHTETTEKGCVLLSYLNETVTVSASLESVRGNRSLFTDLEAENDVLHCVAFAVPKSSSNEEVMFLTVQVKGPTQEFKKRTTVMVKNEDSLVFVQTDKSIYKPGQTVKFRVVSMDENFHPLNELIPLVYIQDPKGNRIAQWQSFQLEGGLKQFSFPLSSEPFQGSYKVVVQKKSGGRTEHPFTVEEFVLPKFEVQVTVPKIITILEEEMNVSVCGLYTYGKPVPGHVTVSICRKYSDASDCHGEDSQAFCEKFSGQLNSHGCFYQQVKTKVFQLKRKEYEMKLHTEAQIQEEGTVVELTGRQSSEITRTITKLSFVKVDSHFRQGIPFFGQVRLVDGKGVPIPNKVIFIRGNEANYYSNATTDEHGLVQFSINTTNVMGTSLTVRVNYKDRSPCYGYQWVSEEHEEAHHTAYLVFSPSKSFVHLEPMSHELPCGHTQTVQAHYILNGGTLLGLKKLSFYYLIMAKGGIVRTGTHGLLVKQEDMKGHFSISIPVKSDIAPVARLLIYAVLPTGDVIGDSAKYDVENCLANKVDLSFSPSQSLPASHAHLRVTAAPQSVCALRAVDQSVLLMKPDAELSASSVYNLLPEKDLTGFPGPLNDQDNEDCINRHNVYINGITYTPVSSTNEKDMYSFLEDMGLKAFTNSKIRKPKMCPQLQQYEMHGPEGLRVGFYESDVMGRGHARLVHVEEPHTETVRKYFPETWIWDLVVVNSAGVAEVGVTVPDTITEWKAGAFCLSEDAGLGISSTASLRAFQPFFVELTMPYSVIRGEAFTLKATVLNYLPKCIRVSVQLEASPAFLAVPVEKEQAPHCICANGRQTVSWAVTPKSLGNVNFTVSAEALESQELCGTEVPSVPEHGRKDTVIKPLLVEPEGLEKETTFNSLLCPSGGEVSEELSLKLPPNVVEESARASVSVLGDILGSAMQNTQNLLQMPYGCGEQNMVLFAPNIYVLDYLNETQQLTPEIKSKAIGYLNTGYQRQLNYKHYDGSYSTFGERYGRNQGNTWLTAFVLKTFAQARAYIFIDEAHITQALIWLSQRQKDNGCFRSSGSLLNNAIKGGVEDEVTLSAYITIALLEIPLTVTHPVVRNALFCLESAWKTAQEGDHGSHVYTKALLAYAFALAGNQDKRKEVLKSLNEEAVKKDNSVHWERPQKPKAPVGHFYEPQAPSAEVEMTSYVLLAYLTAQPAPTSEDLTSATNIVKWITKQQNAQGGFSSTQDTVVALHALSKYGAATFTRTGKAAQVTIQSSGTFSSKFQVDNNNRLLLQQVSLPELPGEYSMKVTGEGCVYLQTSLKYNILPEKEEFPFALGVQTLPQTCDEPKAHTSFQISLSVSYTGSRSASNMAIVDVKMVSGFIPLKPTVKMLERSNHVSRTEVSSNHVLIYLDKVSNQTLSLFFTVLQDVPVRDLKPAIVKVYDYYETDEFAIAEYNAPCSKDLGNA
- binding: no binding
